Assay results reported in the supplement of paper PMC10849652.
The list shows a part of the results.

By UniProt entry, the sequences of proteins in these tests, tags left out. Where a name states a change or a piece, a line headed by the entry shows the natural chain unless it says otherwise.
UniProt O14773: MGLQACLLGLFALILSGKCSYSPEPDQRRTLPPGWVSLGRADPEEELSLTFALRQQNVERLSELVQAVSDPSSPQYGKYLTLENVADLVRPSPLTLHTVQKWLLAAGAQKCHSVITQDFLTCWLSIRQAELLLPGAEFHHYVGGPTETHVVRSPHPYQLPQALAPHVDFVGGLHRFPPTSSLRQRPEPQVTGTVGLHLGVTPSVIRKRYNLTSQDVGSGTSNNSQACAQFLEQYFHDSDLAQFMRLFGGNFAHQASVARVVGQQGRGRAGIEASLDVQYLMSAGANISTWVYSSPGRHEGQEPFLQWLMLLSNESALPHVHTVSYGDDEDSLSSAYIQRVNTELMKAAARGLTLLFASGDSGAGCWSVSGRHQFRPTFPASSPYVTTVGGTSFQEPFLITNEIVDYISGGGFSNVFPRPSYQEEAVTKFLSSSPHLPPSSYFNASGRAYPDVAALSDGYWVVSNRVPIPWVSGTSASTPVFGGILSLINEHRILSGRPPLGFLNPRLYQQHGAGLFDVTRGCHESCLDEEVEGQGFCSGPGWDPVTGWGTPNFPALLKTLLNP
UniProt O96008: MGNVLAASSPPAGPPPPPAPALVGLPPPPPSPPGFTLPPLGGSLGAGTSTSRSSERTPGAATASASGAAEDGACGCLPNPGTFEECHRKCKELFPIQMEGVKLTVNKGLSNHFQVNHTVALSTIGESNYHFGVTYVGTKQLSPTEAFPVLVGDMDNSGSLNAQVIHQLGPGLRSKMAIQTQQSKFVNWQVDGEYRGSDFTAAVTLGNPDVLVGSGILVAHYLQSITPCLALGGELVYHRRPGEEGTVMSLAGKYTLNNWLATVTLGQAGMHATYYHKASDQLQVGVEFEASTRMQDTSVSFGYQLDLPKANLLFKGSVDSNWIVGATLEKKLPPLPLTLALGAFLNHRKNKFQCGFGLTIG
UniProt P42167: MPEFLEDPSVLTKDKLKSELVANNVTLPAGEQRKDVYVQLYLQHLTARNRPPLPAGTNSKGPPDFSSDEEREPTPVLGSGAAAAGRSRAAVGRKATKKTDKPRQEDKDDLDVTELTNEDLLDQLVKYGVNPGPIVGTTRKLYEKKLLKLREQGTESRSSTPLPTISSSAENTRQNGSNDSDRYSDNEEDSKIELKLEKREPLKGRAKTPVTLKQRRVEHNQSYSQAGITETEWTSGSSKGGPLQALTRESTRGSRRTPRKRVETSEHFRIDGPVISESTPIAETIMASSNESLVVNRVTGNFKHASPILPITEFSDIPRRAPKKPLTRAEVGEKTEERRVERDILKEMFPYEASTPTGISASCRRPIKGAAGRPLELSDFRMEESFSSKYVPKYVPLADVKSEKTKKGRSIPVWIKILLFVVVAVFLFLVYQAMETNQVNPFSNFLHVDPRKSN
UniProt Q9H3N1: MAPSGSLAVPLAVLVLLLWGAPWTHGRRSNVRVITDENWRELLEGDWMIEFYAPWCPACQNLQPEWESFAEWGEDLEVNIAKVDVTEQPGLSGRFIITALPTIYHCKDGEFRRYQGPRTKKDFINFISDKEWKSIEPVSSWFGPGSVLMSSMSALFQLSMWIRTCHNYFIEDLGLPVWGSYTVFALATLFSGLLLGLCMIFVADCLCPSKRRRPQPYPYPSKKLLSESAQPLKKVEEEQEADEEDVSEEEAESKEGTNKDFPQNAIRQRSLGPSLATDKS
UniProt P06753, whole entry, looked up: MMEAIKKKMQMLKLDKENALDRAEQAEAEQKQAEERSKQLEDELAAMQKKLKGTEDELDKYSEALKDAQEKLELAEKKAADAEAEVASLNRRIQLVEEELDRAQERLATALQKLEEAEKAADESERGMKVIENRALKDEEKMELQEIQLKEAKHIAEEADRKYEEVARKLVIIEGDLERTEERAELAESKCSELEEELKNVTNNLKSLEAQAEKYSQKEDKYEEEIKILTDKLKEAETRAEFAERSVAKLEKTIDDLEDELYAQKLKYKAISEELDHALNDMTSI
UniProt Q5JTV8: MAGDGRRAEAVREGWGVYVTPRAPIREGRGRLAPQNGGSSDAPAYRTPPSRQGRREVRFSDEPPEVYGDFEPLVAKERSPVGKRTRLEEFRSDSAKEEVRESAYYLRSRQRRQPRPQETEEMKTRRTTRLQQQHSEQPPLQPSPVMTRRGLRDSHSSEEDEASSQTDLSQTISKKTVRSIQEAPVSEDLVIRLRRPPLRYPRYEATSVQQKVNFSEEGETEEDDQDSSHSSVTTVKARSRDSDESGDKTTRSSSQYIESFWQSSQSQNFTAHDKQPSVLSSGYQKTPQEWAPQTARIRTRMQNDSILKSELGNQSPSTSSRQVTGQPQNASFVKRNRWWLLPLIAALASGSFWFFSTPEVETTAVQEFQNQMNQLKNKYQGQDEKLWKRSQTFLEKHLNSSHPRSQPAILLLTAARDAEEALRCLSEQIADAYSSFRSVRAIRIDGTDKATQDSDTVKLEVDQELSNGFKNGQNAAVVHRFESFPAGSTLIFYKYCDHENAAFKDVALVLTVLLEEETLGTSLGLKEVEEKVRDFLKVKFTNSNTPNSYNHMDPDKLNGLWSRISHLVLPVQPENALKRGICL
UniProt Q15628: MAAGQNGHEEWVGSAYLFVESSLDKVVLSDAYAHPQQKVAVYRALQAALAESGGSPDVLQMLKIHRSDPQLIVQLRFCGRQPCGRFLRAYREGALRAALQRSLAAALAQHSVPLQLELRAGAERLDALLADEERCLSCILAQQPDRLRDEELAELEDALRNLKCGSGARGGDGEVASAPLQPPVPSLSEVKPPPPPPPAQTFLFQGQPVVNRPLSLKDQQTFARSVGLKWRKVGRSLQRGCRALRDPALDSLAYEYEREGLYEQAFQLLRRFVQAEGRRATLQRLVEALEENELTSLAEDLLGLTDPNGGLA
UniProt P09493, whole entry, looked up: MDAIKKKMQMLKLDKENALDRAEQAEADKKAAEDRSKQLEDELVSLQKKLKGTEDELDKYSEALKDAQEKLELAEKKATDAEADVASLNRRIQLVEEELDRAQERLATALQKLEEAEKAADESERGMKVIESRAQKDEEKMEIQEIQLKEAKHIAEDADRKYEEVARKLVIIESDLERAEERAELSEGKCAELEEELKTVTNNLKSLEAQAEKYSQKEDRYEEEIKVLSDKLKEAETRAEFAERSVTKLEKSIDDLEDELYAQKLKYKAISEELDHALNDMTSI
UniProt A0PJW6: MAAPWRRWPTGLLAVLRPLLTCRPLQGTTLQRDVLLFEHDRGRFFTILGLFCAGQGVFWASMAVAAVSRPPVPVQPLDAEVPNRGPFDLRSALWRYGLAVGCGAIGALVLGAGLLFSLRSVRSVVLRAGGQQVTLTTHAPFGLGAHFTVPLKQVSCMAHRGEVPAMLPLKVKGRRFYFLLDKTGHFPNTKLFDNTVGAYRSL
UniProt Q15025: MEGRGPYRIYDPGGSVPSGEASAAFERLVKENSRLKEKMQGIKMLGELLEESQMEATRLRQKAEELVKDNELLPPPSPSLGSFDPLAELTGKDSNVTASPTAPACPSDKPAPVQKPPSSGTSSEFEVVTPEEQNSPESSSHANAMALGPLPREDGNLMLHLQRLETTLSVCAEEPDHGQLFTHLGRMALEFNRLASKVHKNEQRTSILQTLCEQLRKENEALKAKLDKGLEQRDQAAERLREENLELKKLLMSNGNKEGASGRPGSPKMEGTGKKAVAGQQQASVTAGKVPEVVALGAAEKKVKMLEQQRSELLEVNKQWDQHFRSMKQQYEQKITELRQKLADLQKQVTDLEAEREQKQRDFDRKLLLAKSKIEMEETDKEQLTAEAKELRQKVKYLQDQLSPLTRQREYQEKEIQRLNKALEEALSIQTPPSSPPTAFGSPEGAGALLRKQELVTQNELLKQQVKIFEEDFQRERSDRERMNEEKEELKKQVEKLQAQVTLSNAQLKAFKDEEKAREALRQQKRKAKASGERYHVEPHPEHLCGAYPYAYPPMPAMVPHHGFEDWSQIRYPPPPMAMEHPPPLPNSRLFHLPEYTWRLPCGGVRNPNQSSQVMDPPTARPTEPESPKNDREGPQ
UniProt P67936, whole entry, looked up: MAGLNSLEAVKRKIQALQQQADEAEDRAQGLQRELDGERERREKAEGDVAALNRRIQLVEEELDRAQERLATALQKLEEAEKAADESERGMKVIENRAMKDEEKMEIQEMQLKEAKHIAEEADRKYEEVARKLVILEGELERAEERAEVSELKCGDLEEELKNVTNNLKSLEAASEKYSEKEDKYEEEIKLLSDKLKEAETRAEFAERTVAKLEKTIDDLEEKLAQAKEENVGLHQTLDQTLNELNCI
UniProt O14763, whole entry, looked up: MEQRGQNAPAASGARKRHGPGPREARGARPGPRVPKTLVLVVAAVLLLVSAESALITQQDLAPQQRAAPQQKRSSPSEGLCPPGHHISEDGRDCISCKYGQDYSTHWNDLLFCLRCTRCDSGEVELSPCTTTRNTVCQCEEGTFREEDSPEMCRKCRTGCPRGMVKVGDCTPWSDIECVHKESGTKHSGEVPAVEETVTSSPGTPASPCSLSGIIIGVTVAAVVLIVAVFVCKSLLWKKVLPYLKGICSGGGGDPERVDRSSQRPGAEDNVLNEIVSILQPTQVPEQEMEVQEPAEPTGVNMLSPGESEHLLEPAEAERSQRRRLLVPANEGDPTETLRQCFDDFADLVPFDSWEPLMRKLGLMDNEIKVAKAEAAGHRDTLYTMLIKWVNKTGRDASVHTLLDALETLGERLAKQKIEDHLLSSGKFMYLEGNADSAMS
UniProt P20333, whole entry, looked up: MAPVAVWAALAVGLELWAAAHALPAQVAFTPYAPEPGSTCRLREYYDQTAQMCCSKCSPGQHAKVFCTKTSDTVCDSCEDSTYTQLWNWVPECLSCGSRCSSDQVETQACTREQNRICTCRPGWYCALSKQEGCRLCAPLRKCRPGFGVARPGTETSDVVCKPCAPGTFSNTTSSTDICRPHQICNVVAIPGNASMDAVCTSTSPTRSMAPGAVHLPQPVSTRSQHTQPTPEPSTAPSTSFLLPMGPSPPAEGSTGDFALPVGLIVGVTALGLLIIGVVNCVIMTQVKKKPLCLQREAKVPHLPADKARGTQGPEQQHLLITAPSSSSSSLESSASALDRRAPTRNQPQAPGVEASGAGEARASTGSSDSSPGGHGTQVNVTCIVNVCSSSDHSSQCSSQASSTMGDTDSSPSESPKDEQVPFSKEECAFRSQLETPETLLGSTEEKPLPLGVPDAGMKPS
UniProt Q9ULW0, whole entry, looked up: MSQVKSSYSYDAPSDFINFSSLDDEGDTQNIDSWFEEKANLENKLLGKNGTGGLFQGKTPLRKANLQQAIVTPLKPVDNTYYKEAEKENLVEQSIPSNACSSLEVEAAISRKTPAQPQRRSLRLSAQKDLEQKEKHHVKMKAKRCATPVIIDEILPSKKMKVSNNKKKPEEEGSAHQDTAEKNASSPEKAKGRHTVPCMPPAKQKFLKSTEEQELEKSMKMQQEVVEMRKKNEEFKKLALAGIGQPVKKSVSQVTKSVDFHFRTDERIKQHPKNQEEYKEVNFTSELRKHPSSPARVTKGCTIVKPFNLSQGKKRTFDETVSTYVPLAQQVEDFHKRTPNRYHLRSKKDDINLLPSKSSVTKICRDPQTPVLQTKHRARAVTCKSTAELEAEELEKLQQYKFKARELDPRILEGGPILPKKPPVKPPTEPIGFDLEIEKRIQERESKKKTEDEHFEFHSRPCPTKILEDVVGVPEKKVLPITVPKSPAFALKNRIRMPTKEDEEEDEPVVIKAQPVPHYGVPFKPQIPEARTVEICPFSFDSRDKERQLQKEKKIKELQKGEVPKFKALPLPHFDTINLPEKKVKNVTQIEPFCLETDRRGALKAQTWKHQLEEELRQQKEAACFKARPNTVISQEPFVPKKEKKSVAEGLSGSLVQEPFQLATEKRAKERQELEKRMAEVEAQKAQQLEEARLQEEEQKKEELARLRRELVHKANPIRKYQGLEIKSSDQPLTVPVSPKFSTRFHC

Tests used:
Assay in all cases: log2 fold change, soluble protein after heating vs DMSO (PISA); higher = thermal stabilisation; K562 lysate, 10 uM; active = over 0.2 and 3.5 SD of the protein, either way, in both replicates (recomputed)
[1] = compound: C#Cc1cccc(Nc2ncnc3cc(OCCOC)c(OCCOC)cc23)c1 [erlotinib]
Procedure, shortened: (§1)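 K562 pellets were dounce-homogenised in PBS pH 7.4 containing 1 mM MgCl2, and the crude extract, at 1 mg/mL protein, was exposed to 10 μM compound for 30 min. Aliquots were heated for 3 min across 48°C-58°C, pooled, brought to 0.5% NP-40 at 4°C and spun at 21,000xg for 90 min, with the supernatant taken as soluble protein. TMTpro 16plex LC-MS/MS with equalised channel sums quantified that protein. Values are log-two fold changes in thermal stability relative to solvent controls, taken from duplicates.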

[2] = compound: C/C(=N\NC(=O)C1=CC(=CC=C1)S(=O)(=O)N2CCOCC2)/C3=C(C=CC(=C3)Cl)O
Procedure, shortened: as §1

[3] = compound: C1=CC(=CC=C1C2=NC3=C(N2)C=C(C=C3)C(=O)N)OC4=CC=C(C=C4)Cl
Procedure, shortened: as §1

[4] = compound: C1=CC2=C(C=CC(=C2)/C=C\3/C(=O)NC(=NCC4=CC=CS4)S3)N=C1
Procedure, shortened: as §1

[5] = compound: C1=CC2=NC=CN=C2C=C1/C=C/3\C(=O)NC(=O)S3
Procedure, shortened: as §1

[6] = compound: C1=CC=C(C=C1)C2=NC(=C(N2)C3=CC=NC=C3)C4=CC(=C(C=C4)Cl)O
Procedure, shortened: as §1

[7] = compound: C1=CC=C2C(=C1)C3=NNC4=CC=CC(=C43)C2=O
Procedure, shortened: as §1

[8] = compound: C1CCN(C1)C(=O)NC2=CC=CC(=C2)NC3=NC=C(C(=N3)NCCC4=CN=CN4)Br
Procedure, shortened: as §1

[9] = compound: C1CN(CCC1(CC2=CC=C(C=C2)Cl)N)C3=NC=NC4=C3C=CN4
Procedure, shortened: as §1

[10] = compound: C1COCCN1CCN2C3=CC=CC=C3N=C2NC(=O)C4=CC(=CC=C4)[N+](=O)[O-] [IRAK-1-4 Inhibitor I]
Procedure, shortened: as §1

[11] = compound: C=CC(=O)N1CCC[C@@H](n2nc(-c3ccc(Oc4ccccc4)cc3)c3c(N)ncnc32)C1 [ibrutinib]
Procedure, shortened: as §1

[12] = compound: CC(=O)c1cnc2ccc(-c3cc(Cl)c(O)c(Cl)c3)nc2c1N[C@H]1CC[C@H](CN(C)C)CC1
Procedure, shortened: as §1

[13] = compound: CC(C)(C)Cn1c(N)nc2ccc(-c3[nH]c(C(C)(C)C)nc3-c3ccc(F)cc3)nc21 [ralimetinib]
Procedure, shortened: as §1

[14] = compound: CC(C)(O)CC(=O)NCCn1ccc2ncnc(Nc3ccc(Oc4cccc(C(F)(F)F)c4)c(Cl)c3)c21
Procedure, shortened: as §1

[15] = compound: CC(C)C1=C2N=C(C=C(N2N=C1)NCC3=CC=CC=C3)NCCCCCCN
Procedure, shortened: as §1

[16] = compound: CC1=C(C(CC(=O)N1)C2=CC=C(C=C2)C(F)(F)F)C(=O)NC3=C(C=C4C(=C3)C=NN4)F
Procedure, shortened: as §1

[17] = compound: CC1=C(C2=C(C=C1)C(=O)C3=CC=CC=C3N2CCCN)C
Procedure, shortened: as §1

[18] = compound: CC1=C(C=C(C=C1)NC(=O)C2=CC(=CC=C2)C(C)(C)C#N)NC3=CC4=C(C=C3)N=CN(C4=O)C
Procedure, shortened: as §1

[19] = compound: CC1=C(C=C(C=C1)NC(=O)C2=CC(=CC=C2)N(C)C)NC(=O)C3=CC=C(C=C3)O
Procedure, shortened: as §1

[20] = compound: CC1=CC=C(C=C1)SC2=C3C=C(SC3=CN=C2)C(=O)N
Procedure, shortened: as §1

Row | Target | log2 fold change [1] | log2 fold change [2] | log2 fold change [3] | log2 fold change [4] | log2 fold change [5] | log2 fold change [6] | log2 fold change [7] | log2 fold change [8] | log2 fold change [9] | log2 fold change [10] | log2 fold change [11] | log2 fold change [12] | log2 fold change [13] | log2 fold change [14] | log2 fold change [15] | log2 fold change [16] | log2 fold change [17] | log2 fold change [18] | log2 fold change [19] | log2 fold change [20]
1 | TPP1 (UniProt O14773) | inactive: 0.02 | inactive: -0.032 | inactive: -0.009 | inactive: 0.018 | inactive: 0.009 | inactive: -0.005 | inactive: -0.021 | inactive: 0.007 | inactive: 0.025 | inactive: 0.021 | inactive: 0.042 | inactive: 0.021 | inactive: -0.043 | inactive: -0.016 | inactive: 0.001 | inactive: 0.002 | inactive: 0.003 | inactive: 0.017 | inactive: 0.016 | inactive: -0.015
2 | TPM1 (UniProt H7BYY1) | inactive: -0.034 | inactive: -0.004 | inactive: -0.057 | inactive: 0.026 | inactive: -0.008 | inactive: 0.091 | inactive: -0.041 | inactive: 0.012 | inactive: -0.02 | inactive: -0.071 | inactive: -0.002 | inactive: -0.018 | inactive: -0.035 | inactive: 0.068 | inactive: 0.037 | inactive: -0.027 | inactive: 0.023 | inactive: -0.045 | inactive: 0.039 | inactive: -0.034
3 | TOMM40 (UniProt O96008) | inactive: 0.007 | inactive: -0.004 | inactive: 0.003 | inactive: 0.012 | inactive: 0.003 | inactive: 0.012 | inactive: -0.006 | inactive: -0.008 | inactive: -0.001 | inactive: 0.026 | inactive: 0.015 | inactive: 0.004 | inactive: -0.008 | inactive: -0.028 | inactive: -0.003 | inactive: -0.034 | inactive: -0.015 | inactive: 0.025 | inactive: -0.016 | inactive: -0.012
4 | TMPO (UniProt P42167) | inactive: -0.016 | inactive: 0.021 | inactive: -0.021 | inactive: -0.027 | inactive: 0.014 | inactive: -0.029 | inactive: -0.073 | inactive: -0.019 | inactive: -0.032 | inactive: -0.002 | inactive: -0.003 | inactive: 0.009 | inactive: 0.018 | inactive: -0.001 | inactive: -0.044 | inactive: 0.006 | inactive: 0.005 | inactive: -0.043 | inactive: -0.006 | inactive: -0.064
5 | TMX1 (UniProt Q9H3N1) | inactive: -0.036 | inactive: 0.019 | inactive: -0.02 | inactive: 0.003 | inactive: 0.019 | inactive: -0.012 | inactive: -0.005 | inactive: -0.003 | inactive: 0.014 | inactive: -0.032 | inactive: -0.019 | inactive: 0.024 | inactive: -0.009 | inactive: 0.024 | inactive: -0.009 | inactive: 0.001 | inactive: 0.006 | inactive: -0.014 | inactive: -0.048 | inactive: 0.047
6 | TPM3 (UniProt P06753) | inactive: -0.022 | inactive: 0.027 | inactive: -0.026 | inactive: -0.042 | inactive: -0.012 | inactive: 0.014 | inactive: 0.068 | inactive: 0.035 | inactive: -0.021 | inactive: -0.019 | inactive: 0.009 | inactive: -0.001 | inactive: -0.028 | inactive: 0.022 | inactive: 0.013 | inactive: -0.028 | inactive: 0.013 | inactive: -0.038 | inactive: -0.016 | inactive: -0.007
7 | TOR1AIP1 isoform 3 (UniProt Q5JTV8) | inactive: -0.007 | inactive: -0.092 | inactive: -0.008 | inactive: 0.006 | inactive: -0.028 | inactive: -0.016 | inactive: -0.016 | inactive: -0.002 | inactive: 0.037 | inactive: 0.021 | inactive: -0.008 | inactive: 0.019 | inactive: -0.021 | inactive: -0.038 | inactive: -0.007 | inactive: 0.031 | inactive: 0.008 | inactive: -0.003 | inactive: 0.006 | inactive: -0.015
8 | TRADD (UniProt Q15628) | inactive: 0.053 | active: 0.258 | inactive: 0.03 | inactive: -0.224 | inactive: 0.009 | inactive: -0.013 | inactive: 0.251 | inactive: 0.029 | inactive: 0.076 | inactive: 0.033 | inactive: 0.013 | inactive: 0.017 | inactive: -0.005 | inactive: -0.012 | inactive: -0.018 | inactive: -0.015 | inactive: -0.001 | inactive: 0.017 | inactive: 0.021 | inactive: 0.019
9 | TPM1 isoform 4 (UniProt P09493) | inactive: -0.126 | inactive: -0.004 | inactive: 0.005 | inactive: 0.018 | inactive: 0.114 | inactive: -0.026 | inactive: -0.015 | inactive: 0.014 | inactive: -0.052 | inactive: -0.009 | inactive: -0.019 | inactive: 0.009 | inactive: 0.001 | inactive: -0.011 | inactive: -0.024 | inactive: -0.011 | inactive: 0.062 | inactive: 0.011 | inactive: -0.022 | inactive: 0.001
10 | TMEM223 (UniProt A0PJW6) | inactive: -0.282 | inactive: 0.136 | inactive: -0.369 | inactive: -0.108 | inactive: -0.052 | inactive: 0.016 | inactive: 0.118 | inactive: 0.044 | inactive: -0.026 | inactive: -0.065 | inactive: 0.081 | inactive: 0.014 | inactive: 0.174 | inactive: 0.203 | inactive: -0.039 | inactive: 0.058 | inactive: 0.05 | inactive: -0.224 | inactive: 0 | inactive: 0.025
11 | TNIP1 (UniProt Q15025) | inactive: -0.009 | inactive: -0.031 | inactive: 0.068 | inactive: 0.014 | inactive: -0.023 | inactive: -0.008 | inactive: -0.019 | inactive: 0.001 | inactive: -0.012 | inactive: 0.014 | inactive: 0.074 | inactive: -0.076 | inactive: 0.025 | inactive: -0.04 | inactive: 0.023 | inactive: 0.002 | inactive: 0.02 | inactive: -0.061 | inactive: 0.036 | inactive: 0.085
12 | TPM4 isoform 2 (UniProt P67936) | inactive: -0.06 | inactive: 0.011 | inactive: -0.048 | inactive: 0.067 | inactive: 0.002 | inactive: 0.024 | inactive: -0.016 | inactive: 0.016 | inactive: -0.015 | inactive: -0.022 | inactive: -0.062 | inactive: 0.016 | inactive: -0.005 | inactive: 0.032 | inactive: -0.034 | inactive: -0.027 | inactive: -0.025 | inactive: -0.06 | inactive: -0.004 | inactive: 0
13 | TNFRSF10B (UniProt O14763) | inactive: -0.08 | inactive: -0.06 | inactive: -0.051 | inactive: 0.028 | inactive: -0.036 | inactive: 0.079 | inactive: -0.054 | inactive: -0.012 | inactive: -0.002 | inactive: -0.04 | inactive: 0.052 | inactive: 0.015 | inactive: 0.009 | inactive: 0.009 | inactive: -0.062 | inactive: 0.041 | inactive: 0.018 | inactive: 0.017 | inactive: -0.049 | inactive: 0.019
14 | TNFRSF1B (UniProt P20333) | inactive: 0.028 | inactive: 0.001 | inactive: 0.037 | inactive: -0.101 | inactive: -0.04 | inactive: -0.034 | inactive: -0.058 | inactive: 0.037 | inactive: 0.12 | inactive: 0.001 | inactive: -0.069 | inactive: 0.152 | inactive: 0.033 | inactive: -0.046 | inactive: 0.016 | inactive: 0.066 | inactive: -0.057 | inactive: 0 | inactive: 0.034 | inactive: 0.147
15 | TPX2 (UniProt Q9ULW0) | inactive: -0.014 | inactive: -0.008 | inactive: 0.032 | inactive: -0.022 | inactive: -0.013 | inactive: 0.019 | inactive: 0.001 | inactive: -0.005 | inactive: -0.026 | inactive: 0.006 | inactive: 0.024 | inactive: -0.01 | inactive: 0.003 | inactive: -0.006 | inactive: 0.036 | inactive: -0.005 | inactive: -0.008 | inactive: 0.062 | inactive: 0.001 | inactive: -0.01
16 | TPM4 (UniProt P67936) | inactive: 0.028 | inactive: 0.048 | inactive: 0.005 | inactive: 0.058 | inactive: -0.012 | inactive: 0.001 | inactive: 0.009 | inactive: -0.064 | inactive: -0.012 | inactive: 0.028 | inactive: -0.019 | inactive: -0.021 | inactive: 0.003 | inactive: -0.023 | inactive: -0.023 | inactive: -0.038 | inactive: 0.012 | inactive: 0.01 | inactive: 0.013 | inactive: 0.006

Taken from above:
For log2 fold change [7], TMPO (UniProt P42167) has inactive: -0.073
For log2 fold change [11], TPM3 (UniProt P06753) has inactive: 0.009
